Experimental data from publication PMC4107866.
These are yes or no findings as the source states them, for the method shown. Binding seen in cells or lysates may run through a third protein. These calls come from enrichment with a bait or labelling near it, and not all partners need be listed.

Protein sequences, listed by entry. Tags and fused reporters are not part of them. Residues count along the entry.
UniProt O60449, residues 28-1722: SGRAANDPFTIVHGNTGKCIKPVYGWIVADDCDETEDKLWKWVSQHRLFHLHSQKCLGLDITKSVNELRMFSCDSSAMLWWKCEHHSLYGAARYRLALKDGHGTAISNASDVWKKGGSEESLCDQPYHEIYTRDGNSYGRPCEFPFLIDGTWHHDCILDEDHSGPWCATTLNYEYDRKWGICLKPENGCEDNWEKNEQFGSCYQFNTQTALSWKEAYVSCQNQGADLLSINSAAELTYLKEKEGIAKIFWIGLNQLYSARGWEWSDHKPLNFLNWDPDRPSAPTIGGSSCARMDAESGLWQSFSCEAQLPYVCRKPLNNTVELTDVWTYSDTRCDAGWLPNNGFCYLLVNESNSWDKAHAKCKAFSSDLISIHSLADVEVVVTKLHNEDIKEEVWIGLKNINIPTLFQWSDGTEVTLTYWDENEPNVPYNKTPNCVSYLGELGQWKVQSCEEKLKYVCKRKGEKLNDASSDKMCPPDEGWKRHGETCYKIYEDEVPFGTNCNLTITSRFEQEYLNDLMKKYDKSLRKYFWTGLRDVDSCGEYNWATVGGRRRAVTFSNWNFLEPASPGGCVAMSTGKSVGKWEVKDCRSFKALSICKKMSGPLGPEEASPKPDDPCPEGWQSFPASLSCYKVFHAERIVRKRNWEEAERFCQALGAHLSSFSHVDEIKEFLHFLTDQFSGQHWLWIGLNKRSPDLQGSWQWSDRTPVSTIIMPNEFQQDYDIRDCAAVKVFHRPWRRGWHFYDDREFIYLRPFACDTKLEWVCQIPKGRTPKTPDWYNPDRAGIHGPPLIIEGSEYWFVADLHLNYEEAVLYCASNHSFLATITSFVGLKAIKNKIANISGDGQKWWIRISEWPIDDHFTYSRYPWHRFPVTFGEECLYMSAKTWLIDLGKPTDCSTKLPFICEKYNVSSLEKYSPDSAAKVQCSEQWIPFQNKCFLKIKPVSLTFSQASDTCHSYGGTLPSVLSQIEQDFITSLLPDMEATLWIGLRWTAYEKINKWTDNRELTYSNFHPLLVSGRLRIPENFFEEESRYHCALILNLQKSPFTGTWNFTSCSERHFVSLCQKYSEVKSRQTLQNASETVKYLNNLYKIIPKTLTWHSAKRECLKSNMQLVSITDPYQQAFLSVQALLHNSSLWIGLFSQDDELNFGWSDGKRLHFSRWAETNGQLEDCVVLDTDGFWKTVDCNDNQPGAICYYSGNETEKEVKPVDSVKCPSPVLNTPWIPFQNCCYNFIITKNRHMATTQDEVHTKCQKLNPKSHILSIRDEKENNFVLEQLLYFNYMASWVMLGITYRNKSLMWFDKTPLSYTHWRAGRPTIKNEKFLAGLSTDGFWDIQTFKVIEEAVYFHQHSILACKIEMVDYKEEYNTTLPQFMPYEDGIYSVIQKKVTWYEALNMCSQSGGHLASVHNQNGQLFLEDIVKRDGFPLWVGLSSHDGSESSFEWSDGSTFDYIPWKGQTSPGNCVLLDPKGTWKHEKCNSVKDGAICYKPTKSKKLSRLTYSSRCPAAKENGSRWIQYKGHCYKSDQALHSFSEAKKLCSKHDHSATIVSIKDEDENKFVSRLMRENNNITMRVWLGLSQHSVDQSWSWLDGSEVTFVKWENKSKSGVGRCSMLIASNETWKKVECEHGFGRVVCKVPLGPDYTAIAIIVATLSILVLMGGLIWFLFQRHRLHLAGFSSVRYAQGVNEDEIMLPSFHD
UniProt Q15746: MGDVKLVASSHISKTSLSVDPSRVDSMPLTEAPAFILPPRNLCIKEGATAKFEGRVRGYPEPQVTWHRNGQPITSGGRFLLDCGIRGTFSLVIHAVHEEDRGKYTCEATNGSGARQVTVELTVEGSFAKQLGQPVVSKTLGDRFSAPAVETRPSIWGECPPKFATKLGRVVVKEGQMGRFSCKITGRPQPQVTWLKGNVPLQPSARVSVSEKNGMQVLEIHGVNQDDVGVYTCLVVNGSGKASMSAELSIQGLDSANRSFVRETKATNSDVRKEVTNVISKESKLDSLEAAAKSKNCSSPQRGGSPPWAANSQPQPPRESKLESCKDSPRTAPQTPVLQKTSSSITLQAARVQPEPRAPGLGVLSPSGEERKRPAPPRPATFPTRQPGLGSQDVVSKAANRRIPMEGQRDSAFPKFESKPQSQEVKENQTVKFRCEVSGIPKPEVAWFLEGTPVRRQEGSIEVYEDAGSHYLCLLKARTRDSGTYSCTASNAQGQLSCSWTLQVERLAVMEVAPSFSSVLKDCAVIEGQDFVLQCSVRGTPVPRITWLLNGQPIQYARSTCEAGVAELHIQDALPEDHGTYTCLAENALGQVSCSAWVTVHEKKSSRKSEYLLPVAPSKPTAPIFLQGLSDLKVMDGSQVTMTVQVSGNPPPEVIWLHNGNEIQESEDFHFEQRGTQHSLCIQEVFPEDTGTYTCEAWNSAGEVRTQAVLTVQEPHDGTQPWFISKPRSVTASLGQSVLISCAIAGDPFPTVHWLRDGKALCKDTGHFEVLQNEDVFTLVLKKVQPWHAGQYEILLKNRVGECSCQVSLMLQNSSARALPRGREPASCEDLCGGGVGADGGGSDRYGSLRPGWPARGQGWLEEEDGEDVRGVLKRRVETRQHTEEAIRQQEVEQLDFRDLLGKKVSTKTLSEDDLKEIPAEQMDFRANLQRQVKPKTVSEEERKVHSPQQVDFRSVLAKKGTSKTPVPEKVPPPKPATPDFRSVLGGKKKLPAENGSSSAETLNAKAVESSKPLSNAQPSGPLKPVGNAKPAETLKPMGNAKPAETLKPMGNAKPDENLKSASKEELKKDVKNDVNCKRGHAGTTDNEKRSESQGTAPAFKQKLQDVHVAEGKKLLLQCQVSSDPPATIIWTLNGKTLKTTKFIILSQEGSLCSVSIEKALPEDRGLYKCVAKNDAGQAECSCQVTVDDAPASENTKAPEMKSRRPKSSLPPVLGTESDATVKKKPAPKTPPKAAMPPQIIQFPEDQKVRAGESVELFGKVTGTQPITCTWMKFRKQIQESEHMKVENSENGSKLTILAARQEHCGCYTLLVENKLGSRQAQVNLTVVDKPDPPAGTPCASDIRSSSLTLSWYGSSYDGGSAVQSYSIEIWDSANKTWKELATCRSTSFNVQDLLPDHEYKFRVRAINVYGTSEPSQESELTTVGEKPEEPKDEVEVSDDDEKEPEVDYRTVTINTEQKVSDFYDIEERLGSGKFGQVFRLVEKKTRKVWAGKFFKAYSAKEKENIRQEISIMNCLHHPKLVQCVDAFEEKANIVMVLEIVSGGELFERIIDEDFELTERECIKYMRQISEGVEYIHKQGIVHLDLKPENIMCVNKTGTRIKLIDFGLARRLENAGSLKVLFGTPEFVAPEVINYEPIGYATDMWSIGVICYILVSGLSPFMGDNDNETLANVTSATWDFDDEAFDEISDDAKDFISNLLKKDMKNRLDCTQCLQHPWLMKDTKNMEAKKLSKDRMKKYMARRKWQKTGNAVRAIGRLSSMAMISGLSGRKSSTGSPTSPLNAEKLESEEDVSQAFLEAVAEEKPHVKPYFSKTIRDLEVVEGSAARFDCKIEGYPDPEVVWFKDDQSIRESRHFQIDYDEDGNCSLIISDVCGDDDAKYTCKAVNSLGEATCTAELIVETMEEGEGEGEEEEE
UniProt O75449: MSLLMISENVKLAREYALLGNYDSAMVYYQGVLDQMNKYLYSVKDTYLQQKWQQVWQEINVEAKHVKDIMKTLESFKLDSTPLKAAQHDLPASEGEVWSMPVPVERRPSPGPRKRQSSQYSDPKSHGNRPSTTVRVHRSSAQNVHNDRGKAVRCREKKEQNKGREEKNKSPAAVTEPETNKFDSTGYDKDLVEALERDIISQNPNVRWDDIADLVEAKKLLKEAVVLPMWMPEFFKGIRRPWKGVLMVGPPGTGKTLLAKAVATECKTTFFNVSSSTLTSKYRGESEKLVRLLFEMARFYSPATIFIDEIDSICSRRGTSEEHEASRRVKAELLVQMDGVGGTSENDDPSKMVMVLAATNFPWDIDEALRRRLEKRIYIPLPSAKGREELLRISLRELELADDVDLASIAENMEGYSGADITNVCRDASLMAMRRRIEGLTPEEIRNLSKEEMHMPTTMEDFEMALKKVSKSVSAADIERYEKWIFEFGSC

The substances below were run against 3XFLAG-TEV-CBP-Cul3 (human) (UniProt Q13618) (assay: affinity purification with mass spectrometry; tandem affinity purification of 3XFLAG-TEV-CBP-Cul3 from lysate of transfected HEK293 cells (RIPA buffer): anti-FLAG M2 beads, TEV cleavage, calmodulin beads, elution with EGTA; MudPIT LC/MS-MS; proteins also found with 3XFLAG-TEV-CBP-actin removed).

Substance | binding
Lymphocyte antigen 75 (from UniProt O60449-1 28-1722) | binds
Nedd8 (from UniProt Q15843 1-76) | binds
Nesprin-1 (from UniProt Q8NF91 1-8797) | binds
Rb1-inducible coiled coil protein 1 (from UniProt Q8TDY2-1 1-1594) | binds

Second part, the substance after the results:

binding | Substance
binds | Endothelial differentiation, sphingolipid G-protein-coupled receptor, 1 (from UniProt P21453 1-382)
binds | Long myosin light chain kinase (from UniProt Q15746 1-1914) (enzyme)
binds | Thyroid hormone receptor interactor 11 (from UniProt Q15643-1 1-1979)
binds | p60/katanin (from UniProt O75449 1-491)
